Test results from the supplement of paper PMC8728848.
Some of the results follow.

Tests used:
Experiment in all cases: glycan array binding signal (z-score within array); higher = stronger binding
Conditions in all cases: glycan notation: IUPAC condensed, linker removed
[1] = target: Gal(b1-4)GlcNAc(b1-3)Gal(b1-4)Glc
In short: (§1)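 The Consortium for Functional Glycomics database supplied 3228 glycan arrays, of which those lacking an available protein sequence were dropped. The binding signal, a within-array Z-score, was averaged across arrays of the same protein sequence and across linkers. Negative scores can be read as non-binding.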

[2] = target: Gal(b1-4)GlcNAc(b1-3)Gal(b1-4)GlcNAc
In short: as §1

[3] = target: Gal(b1-4)GlcNAc(b1-3)Gal(b1-4)GlcNAc(b1-3)Gal(b1-4)GlcNAc
In short: as §1

[4] = target: Gal(b1-4)GlcNAc(b1-3)Gal(b1-4)[Fuc(a1-3)GlcNAc(b1-6)]Gal(b1-4)Glc
In short: as §1

[5] = target: Gal(b1-4)GlcNAc(b1-3)Gal(b1-4)[Fuc(a1-3)]GlcNAc(b1-3)Gal(b1-4)[Fuc(a1-3)]GlcNAc
In short: as §1

[6] = target: Gal(b1-4)GlcNAc(b1-3)GalNAc
In short: as §1

[7] = target: Gal(b1-4)GlcNAc(b1-3)[Gal(b1-4)GlcNAc(b1-6)]Gal(b1-4)GlcNAc
In short: as §1

[8] = target: Gal(b1-4)GlcNAc(b1-3)[Gal(b1-4)GlcNAc(b1-6)]GalNAc
In short: as §1

[9] = target: Gal(b1-4)GlcNAc(b1-3)[GlcNAc(b1-6)]Gal(b1-4)GlcNAc
In short: as §1

[10] = target: Gal(b1-4)GlcNAc(b1-6)Gal(b1-4)GlcNAc
In short: as §1

[11] = target: Gal(b1-4)GlcNAc(b1-6)GalNAc
In short: as §1

[12] = target: Gal(b1-4)GlcNAc(b1-6)[Gal(b1-3)]GalNAc
In short: as §1

Gal(b1-4)GlcNAc6P = target: Gal(b1-4)GlcNAc6P
In short: as §1

Gal(b1-6)Gal = target: Gal(b1-6)Gal
In short: as §1

Gal3S(b1-3)GalNAc = target: Gal3S(b1-3)GalNAc
In short: as §1

Gal3S(b1-3)GlcNAc = target: Gal3S(b1-3)GlcNAc
In short: as §1

[13] = target: Gal3S(b1-3)[Fuc(a1-4)]GlcNAc
In short: as §1

Gal3S(b1-4)Glc = target: Gal3S(b1-4)Glc
In short: as §1

Gal3S(b1-4)Glc6S = target: Gal3S(b1-4)Glc6S
In short: as §1

Gal3S(b1-4)GlcNAc = target: Gal3S(b1-4)GlcNAc
In short: as §1

Gal3S(b1-4)GlcNAc6S = target: Gal3S(b1-4)GlcNAc6S
In short: as §1

[14] = target: Gal3S(b1-4)[Fuc(a1-3)]Glc
In short: as §1

[15] = target: Gal3S(b1-4)[Fuc(a1-3)]Glc6S
In short: as §1

Gal3S4S(b1-4)GlcNAc = target: Gal3S4S(b1-4)GlcNAc
In short: as §1

Gal3S6S(b1-4)GlcNAc = target: Gal3S6S(b1-4)GlcNAc
In short: as §1

Gal3S6S(b1-4)GlcNAc6S = target: Gal3S6S(b1-4)GlcNAc6S
In short: as §1

Gal4S(b1-4)GlcNAc = target: Gal4S(b1-4)GlcNAc
In short: as §1

Gal4S6S(b1-4)GlcNAc = target: Gal4S6S(b1-4)GlcNAc
In short: as §1

Gal6P(b1-4)GlcNAc = target: Gal6P(b1-4)GlcNAc
In short: as §1

Gal6S(b1-3)GlcNAc = target: Gal6S(b1-3)GlcNAc
In short: as §1

Gal6S(b1-3)GlcNAc6S = target: Gal6S(b1-3)GlcNAc6S
In short: as §1

Gal6S(b1-4)Glc = target: Gal6S(b1-4)Glc
In short: as §1

Gal6S(b1-4)Glc6S = target: Gal6S(b1-4)Glc6S
In short: as §1

Gal6S(b1-4)GlcNAc = target: Gal6S(b1-4)GlcNAc
In short: as §1

Gal6S(b1-4)GlcNAc6S = target: Gal6S(b1-4)GlcNAc6S
In short: as §1

GalNAc(a1-3)Gal = target: GalNAc(a1-3)Gal
In short: as §1

GalNAc(a1-3)GalNAc = target: GalNAc(a1-3)GalNAc
In short: as §1

[16] = target: GalNAc(a1-3)GalNAc(b1-3)Gal(a1-4)Gal(b1-4)Glc
In short: as §1

B1: Intelectin-1a (Mus musculus) (protein)
chain: AEWSHPQFEKAEENLDTNRWGNSFFSSLPRSCKEIKQEHTKAQDGLYFLRTKNGVIYQTFCDMTTAGGGWTLVASVHENNMRGKCTVGDRWSSQQGNRADYPEGDGNWANYNTFGSAEAATSDDYKNPGYFDIQAENLGIWHVPNKSPLHNWRKSSLLRYRTFTGFLQHLGHNLFGLYKKYPVKYGEGKCWTDNGPALPVVYDFGDARKTASYYSPSGQREFTAGYVQFRVFNNERAASALCAGVRVTGCNTEHHCIGGGGFFPEGNPVQCGDFASFDWDGYGTHNGYSSSRKITEAAVLLFYR
glycan array binding signal (z-score) [1]: -0.53
glycan array binding signal (z-score) [2]: -0.082
glycan array binding signal (z-score) [3]: -0.664
glycan array binding signal (z-score) [4]: -0.013
glycan array binding signal (z-score) [5]: -0.972
glycan array binding signal (z-score) [6]: -1.14
glycan array binding signal (z-score) [7]: 0.211
glycan array binding signal (z-score) [8]: -0.574
glycan array binding signal (z-score) [9]: 1.05
glycan array binding signal (z-score) [10]: 0.3
glycan array binding signal (z-score) [11]: -0.792
glycan array binding signal (z-score) [12]: -0.346
glycan array binding signal (z-score) (Gal(b1-4)GlcNAc6P): 0.124
glycan array binding signal (z-score) (Gal(b1-6)Gal): -0.657
glycan array binding signal (z-score) (Gal3S(b1-3)GalNAc): -0.527
glycan array binding signal (z-score) (Gal3S(b1-3)GlcNAc): -0.392
glycan array binding signal (z-score) [13]: -0.061
glycan array binding signal (z-score) (Gal3S(b1-4)Glc): -0.304
glycan array binding signal (z-score) (Gal3S(b1-4)Glc6S): -0.631
glycan array binding signal (z-score) (Gal3S(b1-4)GlcNAc): -0.181
glycan array binding signal (z-score) (Gal3S(b1-4)GlcNAc6S): -0.261
glycan array binding signal (z-score) [14]: 1.22
glycan array binding signal (z-score) [15]: -0.771
glycan array binding signal (z-score) (Gal3S4S(b1-4)GlcNAc): 0.741
glycan array binding signal (z-score) (Gal3S6S(b1-4)GlcNAc): 0.047
glycan array binding signal (z-score) (Gal3S6S(b1-4)GlcNAc6S): -0.423
glycan array binding signal (z-score) (Gal4S(b1-4)GlcNAc): -0.354
glycan array binding signal (z-score) (Gal4S6S(b1-4)GlcNAc): 0.272
glycan array binding signal (z-score) (Gal6P(b1-4)GlcNAc): 0.455
glycan array binding signal (z-score) (Gal6S(b1-3)GlcNAc): -0.506
glycan array binding signal (z-score) (Gal6S(b1-3)GlcNAc6S): -0.024
glycan array binding signal (z-score) (Gal6S(b1-4)Glc): -0.261
glycan array binding signal (z-score) (Gal6S(b1-4)Glc6S): -0.38
glycan array binding signal (z-score) (Gal6S(b1-4)GlcNAc): -0.621
glycan array binding signal (z-score) (Gal6S(b1-4)GlcNAc6S): 0.26
glycan array binding signal (z-score) (GalNAc(a1-3)Gal): 0.3
glycan array binding signal (z-score) (GalNAc(a1-3)GalNAc): -0.008
glycan array binding signal (z-score) [16]: -1.58
